No constants are given. Whether binding was seen depends on the method and setting. Binding seen in cells or lysates may run through a third protein. Some results given as binding are weak or reduced against the parent protein; the word gives no strength.

Amino acid sequences for entries named in this document (tags omitted).
UniProt P31749: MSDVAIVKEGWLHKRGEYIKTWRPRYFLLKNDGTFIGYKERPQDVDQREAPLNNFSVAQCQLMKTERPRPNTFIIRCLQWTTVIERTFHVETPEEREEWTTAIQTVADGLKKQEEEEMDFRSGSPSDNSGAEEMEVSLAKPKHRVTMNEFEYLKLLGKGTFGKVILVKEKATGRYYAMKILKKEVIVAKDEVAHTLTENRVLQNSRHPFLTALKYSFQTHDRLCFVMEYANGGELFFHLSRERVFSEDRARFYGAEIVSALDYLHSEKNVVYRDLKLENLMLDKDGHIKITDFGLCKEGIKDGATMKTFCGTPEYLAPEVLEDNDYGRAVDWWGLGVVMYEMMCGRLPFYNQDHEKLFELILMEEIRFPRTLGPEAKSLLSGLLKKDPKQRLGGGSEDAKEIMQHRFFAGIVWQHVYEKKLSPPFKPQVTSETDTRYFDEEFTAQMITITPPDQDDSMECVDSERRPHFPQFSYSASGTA

In the experiment the target is T1, Thioredoxin-interacting protein (TXNIP), overexpressed from a plasmid (UniProt Q9H3M7).
T1 sequence: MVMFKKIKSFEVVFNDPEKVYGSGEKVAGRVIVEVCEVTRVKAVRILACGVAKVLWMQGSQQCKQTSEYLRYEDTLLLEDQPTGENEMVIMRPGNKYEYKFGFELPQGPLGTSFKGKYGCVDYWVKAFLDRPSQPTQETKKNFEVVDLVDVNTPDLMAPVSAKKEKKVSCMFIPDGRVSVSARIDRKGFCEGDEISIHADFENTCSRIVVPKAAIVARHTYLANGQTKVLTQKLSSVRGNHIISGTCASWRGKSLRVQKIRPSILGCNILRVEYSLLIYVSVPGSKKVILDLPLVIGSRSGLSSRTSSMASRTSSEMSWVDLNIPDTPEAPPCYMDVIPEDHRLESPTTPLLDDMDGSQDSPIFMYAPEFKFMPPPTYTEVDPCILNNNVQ
The experiment is described as follows: pull-down; GST pull-down from 293T cells cotransfected with TXNIP and AKT plasmids; also after 25 mM glucose for 1 hr or 0.5 mM H2O2 for 1 hr (interaction induced).

As to “AKT (protein kinase B), overexpressed from a plasmid (from UniProt P31749 1-480) (enzyme)”, the binding entry was “binds”.

Values taken from PMC6260918.
